Earlier results, collected in article PMC2695546 (Psychopharmacology, 2009).

Molecular target: NMDA receptors
Details: ref Whittemore et al. [1997]; Coughenour and Cordon [1997]; cited from earlier work

Structure (SMILES): O=C(CCCN1CCC(O)(c2ccc(Cl)cc2)CC1)c1ccc(F)cc1 [Haloperidol, haloperidol]
- Ki for NMDA receptors: micromolar range
